Source: the supplement of paper PMC12067093, “Discovery and optimisation of a covalent ligand for TRIM25 and its application to targeted protein ubiquitination” (Chemical Science, 2025)
This is one part of the list.

By UniProt entry, the sequences of proteins in these tests, tags left out. Where a name states a change or a piece, a line headed by the entry shows the natural chain unless it says otherwise.
UniProt Q9BZX2: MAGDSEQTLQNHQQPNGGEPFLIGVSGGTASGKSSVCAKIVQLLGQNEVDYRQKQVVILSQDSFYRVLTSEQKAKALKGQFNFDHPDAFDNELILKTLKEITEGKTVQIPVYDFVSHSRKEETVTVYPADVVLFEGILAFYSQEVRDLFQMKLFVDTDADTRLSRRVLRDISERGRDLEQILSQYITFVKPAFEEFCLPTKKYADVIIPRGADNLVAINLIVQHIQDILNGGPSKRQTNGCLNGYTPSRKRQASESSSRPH
UniProt O60287: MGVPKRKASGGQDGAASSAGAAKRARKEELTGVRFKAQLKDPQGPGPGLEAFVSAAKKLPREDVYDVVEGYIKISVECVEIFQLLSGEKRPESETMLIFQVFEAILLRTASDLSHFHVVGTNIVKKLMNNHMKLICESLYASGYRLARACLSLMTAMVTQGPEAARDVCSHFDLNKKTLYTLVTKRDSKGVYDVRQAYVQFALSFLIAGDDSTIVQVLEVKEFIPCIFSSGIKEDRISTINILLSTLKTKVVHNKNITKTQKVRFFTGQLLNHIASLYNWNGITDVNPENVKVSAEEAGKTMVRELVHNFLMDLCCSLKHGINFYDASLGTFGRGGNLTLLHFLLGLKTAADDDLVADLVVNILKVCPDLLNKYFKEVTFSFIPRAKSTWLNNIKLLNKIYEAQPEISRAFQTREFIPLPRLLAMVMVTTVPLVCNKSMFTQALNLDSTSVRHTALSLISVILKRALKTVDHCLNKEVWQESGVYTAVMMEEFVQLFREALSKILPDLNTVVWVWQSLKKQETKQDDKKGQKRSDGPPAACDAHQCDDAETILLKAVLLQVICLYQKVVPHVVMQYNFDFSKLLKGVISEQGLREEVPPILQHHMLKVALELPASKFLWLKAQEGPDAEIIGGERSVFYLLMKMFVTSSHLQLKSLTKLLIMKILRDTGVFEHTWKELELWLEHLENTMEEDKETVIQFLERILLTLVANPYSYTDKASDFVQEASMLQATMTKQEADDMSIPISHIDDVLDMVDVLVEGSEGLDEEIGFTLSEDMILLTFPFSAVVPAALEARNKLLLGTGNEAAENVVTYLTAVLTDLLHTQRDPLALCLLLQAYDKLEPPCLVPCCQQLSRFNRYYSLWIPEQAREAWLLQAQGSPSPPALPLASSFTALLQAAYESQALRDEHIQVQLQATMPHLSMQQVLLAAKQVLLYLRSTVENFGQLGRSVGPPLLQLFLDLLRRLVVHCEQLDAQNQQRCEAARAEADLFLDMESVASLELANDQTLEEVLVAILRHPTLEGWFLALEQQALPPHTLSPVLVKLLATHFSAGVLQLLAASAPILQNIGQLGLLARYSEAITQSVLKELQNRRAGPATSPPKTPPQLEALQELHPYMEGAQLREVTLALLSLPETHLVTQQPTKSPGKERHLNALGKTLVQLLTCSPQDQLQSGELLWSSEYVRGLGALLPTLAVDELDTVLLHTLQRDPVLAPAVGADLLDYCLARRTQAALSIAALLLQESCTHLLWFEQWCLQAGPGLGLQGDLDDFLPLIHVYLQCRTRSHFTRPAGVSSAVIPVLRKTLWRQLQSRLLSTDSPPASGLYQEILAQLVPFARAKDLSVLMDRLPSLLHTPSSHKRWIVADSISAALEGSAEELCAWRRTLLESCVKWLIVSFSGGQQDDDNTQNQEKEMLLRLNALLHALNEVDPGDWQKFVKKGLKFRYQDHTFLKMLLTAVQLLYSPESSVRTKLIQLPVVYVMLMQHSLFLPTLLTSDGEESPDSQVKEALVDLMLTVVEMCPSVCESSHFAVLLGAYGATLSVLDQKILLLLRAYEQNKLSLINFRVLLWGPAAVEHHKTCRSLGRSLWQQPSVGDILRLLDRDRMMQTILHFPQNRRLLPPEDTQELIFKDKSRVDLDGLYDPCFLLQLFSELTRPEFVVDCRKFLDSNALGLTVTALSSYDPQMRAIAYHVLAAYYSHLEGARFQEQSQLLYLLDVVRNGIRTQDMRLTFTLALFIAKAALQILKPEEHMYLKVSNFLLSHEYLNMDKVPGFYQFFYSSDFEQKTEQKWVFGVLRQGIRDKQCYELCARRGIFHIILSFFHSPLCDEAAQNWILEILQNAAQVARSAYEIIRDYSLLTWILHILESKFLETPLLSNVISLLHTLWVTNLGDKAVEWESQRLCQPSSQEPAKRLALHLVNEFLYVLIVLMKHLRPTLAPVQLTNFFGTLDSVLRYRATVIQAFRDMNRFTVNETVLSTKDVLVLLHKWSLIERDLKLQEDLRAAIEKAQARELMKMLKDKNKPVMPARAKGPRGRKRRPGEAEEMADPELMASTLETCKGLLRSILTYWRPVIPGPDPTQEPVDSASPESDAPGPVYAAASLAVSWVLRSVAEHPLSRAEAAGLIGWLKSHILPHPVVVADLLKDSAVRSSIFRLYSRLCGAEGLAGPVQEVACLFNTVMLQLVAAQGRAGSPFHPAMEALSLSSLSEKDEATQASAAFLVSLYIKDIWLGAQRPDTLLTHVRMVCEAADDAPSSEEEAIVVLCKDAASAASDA
UniProt Q9HAU5: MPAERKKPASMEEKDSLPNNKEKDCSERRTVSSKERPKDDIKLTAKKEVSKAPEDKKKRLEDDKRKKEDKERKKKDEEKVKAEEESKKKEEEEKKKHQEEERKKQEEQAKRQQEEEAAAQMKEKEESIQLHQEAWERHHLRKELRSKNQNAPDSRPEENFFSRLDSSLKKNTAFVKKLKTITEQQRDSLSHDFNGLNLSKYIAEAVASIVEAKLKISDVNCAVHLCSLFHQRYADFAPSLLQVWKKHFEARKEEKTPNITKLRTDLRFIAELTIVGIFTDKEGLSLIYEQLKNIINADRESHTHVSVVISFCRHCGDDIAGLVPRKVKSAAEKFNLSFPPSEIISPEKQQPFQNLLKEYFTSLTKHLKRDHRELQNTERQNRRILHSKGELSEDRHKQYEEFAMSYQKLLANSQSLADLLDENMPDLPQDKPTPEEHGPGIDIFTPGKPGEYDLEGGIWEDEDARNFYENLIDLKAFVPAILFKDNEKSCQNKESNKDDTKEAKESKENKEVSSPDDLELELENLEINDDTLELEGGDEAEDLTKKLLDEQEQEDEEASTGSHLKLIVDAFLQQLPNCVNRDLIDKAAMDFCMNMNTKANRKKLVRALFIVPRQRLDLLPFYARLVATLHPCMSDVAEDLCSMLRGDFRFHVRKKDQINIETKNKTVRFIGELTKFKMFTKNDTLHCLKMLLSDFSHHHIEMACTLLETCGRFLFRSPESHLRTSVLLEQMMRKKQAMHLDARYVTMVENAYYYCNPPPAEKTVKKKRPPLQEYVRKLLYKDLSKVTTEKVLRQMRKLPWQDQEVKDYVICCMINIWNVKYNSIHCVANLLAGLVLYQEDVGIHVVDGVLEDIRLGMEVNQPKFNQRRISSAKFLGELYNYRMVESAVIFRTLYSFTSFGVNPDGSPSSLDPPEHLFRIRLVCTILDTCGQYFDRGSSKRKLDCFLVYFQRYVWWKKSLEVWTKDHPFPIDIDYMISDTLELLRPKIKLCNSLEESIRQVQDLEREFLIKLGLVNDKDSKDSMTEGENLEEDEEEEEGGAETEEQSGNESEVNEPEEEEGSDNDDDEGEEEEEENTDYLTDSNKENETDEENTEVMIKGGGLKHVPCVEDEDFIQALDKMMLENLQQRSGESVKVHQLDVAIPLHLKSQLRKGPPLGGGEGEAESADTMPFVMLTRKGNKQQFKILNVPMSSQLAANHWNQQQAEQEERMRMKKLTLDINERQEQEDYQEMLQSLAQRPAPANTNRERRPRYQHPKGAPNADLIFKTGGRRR
UniProt Q9UPU5: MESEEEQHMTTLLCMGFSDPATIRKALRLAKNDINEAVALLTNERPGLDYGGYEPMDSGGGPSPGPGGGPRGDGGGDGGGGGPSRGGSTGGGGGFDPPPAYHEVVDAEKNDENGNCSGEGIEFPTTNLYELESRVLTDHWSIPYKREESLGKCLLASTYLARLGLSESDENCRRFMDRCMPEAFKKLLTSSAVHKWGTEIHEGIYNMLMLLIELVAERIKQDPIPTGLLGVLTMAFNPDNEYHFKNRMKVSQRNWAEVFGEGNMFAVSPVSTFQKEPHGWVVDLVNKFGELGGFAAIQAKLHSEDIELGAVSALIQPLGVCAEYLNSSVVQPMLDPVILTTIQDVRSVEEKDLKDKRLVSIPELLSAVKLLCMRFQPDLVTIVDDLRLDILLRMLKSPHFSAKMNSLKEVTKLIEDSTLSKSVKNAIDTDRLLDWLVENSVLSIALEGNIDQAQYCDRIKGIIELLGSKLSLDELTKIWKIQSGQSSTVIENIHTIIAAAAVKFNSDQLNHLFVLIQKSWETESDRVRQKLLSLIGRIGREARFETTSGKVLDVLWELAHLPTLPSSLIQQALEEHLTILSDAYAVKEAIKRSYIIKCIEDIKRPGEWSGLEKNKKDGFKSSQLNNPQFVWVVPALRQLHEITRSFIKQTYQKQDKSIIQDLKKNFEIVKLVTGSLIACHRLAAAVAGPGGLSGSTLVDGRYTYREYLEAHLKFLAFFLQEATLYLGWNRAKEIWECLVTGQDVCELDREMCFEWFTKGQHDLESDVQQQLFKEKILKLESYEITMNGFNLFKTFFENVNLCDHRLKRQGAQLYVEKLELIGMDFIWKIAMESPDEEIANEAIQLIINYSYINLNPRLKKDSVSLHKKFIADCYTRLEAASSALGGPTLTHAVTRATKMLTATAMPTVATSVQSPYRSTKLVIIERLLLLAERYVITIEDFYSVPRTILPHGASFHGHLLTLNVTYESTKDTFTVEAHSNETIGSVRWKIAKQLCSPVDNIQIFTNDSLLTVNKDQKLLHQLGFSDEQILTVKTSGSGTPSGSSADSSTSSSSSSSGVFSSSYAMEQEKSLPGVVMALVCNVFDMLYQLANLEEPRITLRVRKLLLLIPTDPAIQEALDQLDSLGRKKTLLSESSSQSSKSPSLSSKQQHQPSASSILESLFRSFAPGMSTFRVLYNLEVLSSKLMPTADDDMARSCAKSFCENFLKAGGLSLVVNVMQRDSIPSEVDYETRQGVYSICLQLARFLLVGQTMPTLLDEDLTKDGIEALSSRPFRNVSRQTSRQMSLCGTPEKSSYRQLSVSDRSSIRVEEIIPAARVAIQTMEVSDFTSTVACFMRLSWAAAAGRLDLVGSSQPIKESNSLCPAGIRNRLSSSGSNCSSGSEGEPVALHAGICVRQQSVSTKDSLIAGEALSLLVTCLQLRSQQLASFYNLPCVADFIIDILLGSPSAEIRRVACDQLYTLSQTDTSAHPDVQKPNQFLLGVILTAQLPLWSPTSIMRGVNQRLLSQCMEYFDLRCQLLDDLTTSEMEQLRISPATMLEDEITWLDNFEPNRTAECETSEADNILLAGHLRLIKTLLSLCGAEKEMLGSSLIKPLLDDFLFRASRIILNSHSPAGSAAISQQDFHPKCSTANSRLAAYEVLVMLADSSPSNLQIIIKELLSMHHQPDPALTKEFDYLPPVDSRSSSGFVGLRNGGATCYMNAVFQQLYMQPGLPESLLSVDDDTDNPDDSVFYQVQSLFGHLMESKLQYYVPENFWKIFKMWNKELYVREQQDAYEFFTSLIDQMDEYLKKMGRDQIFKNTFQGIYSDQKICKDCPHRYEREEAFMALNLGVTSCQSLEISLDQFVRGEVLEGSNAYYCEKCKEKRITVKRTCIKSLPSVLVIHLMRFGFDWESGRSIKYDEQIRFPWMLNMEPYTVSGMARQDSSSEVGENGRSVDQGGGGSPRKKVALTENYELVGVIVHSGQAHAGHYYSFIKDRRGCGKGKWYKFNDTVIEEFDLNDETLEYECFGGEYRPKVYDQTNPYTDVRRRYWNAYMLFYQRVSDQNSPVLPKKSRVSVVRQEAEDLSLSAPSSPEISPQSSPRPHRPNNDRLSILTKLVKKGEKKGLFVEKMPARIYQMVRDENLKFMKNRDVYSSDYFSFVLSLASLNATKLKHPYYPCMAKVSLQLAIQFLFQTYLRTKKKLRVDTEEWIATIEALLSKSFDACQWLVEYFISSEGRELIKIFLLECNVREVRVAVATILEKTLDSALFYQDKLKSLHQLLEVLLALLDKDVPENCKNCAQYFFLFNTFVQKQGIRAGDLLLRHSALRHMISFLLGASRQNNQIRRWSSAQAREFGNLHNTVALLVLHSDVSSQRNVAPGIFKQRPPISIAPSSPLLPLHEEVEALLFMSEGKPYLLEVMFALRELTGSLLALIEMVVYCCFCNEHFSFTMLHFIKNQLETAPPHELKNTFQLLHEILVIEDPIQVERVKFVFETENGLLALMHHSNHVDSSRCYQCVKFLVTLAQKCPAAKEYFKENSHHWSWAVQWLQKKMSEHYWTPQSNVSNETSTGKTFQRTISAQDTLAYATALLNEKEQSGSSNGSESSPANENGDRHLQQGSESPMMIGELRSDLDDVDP
UniProt P07919: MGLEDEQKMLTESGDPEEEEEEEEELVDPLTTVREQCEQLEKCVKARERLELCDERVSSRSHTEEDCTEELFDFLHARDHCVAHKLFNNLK

Compound: Cc1cc(ccc1-c1ccccc1)C(=O)N1CCCN(CC1)C(=O)CCl [compound 10]
Experiment: probe-labelled cysteine peptide fold change vs DMSO (competition) (log2 fold change); higher = less target engagement (more negative = stronger competition)
Conditions: THP-1, incubation time: 4 h
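Also: competitive profiling in live THP-1 cells: cysteine peptides tagged with an iodoacetamide desthiobiotin (IA-DTB) probe, intensity after compound treatment relative to DMSO-treated cells.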

Question: With “UQCRC2_P22695_192_NALANPLYCPDYR (UniProt P22695)” as the target, how does the “probe-labelled cysteine peptide fold change” value (10 µM) read?
Answer: 0.015

Question: What about the “probe-labelled cysteine peptide fold change” value (50 µM) of the same target?
Answer: 0.158

Question: For “UCK2_Q9BZX2_241_RQTNGCLNGYTPSR (UniProt Q9BZX2)”, which “probe-labelled cysteine peptide fold change” value (10 µM) is on record?
Answer: -0.398

Question: What about the “probe-labelled cysteine peptide fold change” value (50 µM) of the same target?
Answer: -0.393

Question: For “UGGT1_Q9NYU2_159_KTCESDTLEALLLTASERPK (UniProt Q9NYU2)”, which “probe-labelled cysteine peptide fold change” value (10 µM) is on record?
Answer: 0.0635

Question: And the “probe-labelled cysteine peptide fold change” value (50 µM)?
Answer: -0.00163

Question: For “URB1_O60287_226_EFIPCIFSSGIKEDR (UniProt O60287)”, which “probe-labelled cysteine peptide fold change” value (10 µM) is on record?
Answer: 0.245

Question: What about the “probe-labelled cysteine peptide fold change” value (50 µM) of the same target?
Answer: -0.0265

Question: Which results are given for “UNC45A_Q9H3U1_503_ALVGLCK (UniProt Q9H3U1)”?
Answer: probe-labelled cysteine peptide fold change (10 µM): 0.0377; probe-labelled cysteine peptide fold change (50 µM): -0.217

Question: Which “probe-labelled cysteine peptide fold change” value (10 µM) does the source give for “USP11_P51784_468+471_STLVCPDCGNVSVTFDPFCYLSVPLPISHKR (UniProt P51784)” here?
Answer: -0.107

Question: What about the “probe-labelled cysteine peptide fold change” value (50 µM) of the same target?
Answer: -0.0253

Question: How did the “probe-labelled cysteine peptide fold change” value (10 µM) turn out when “UPF2_Q9HAU5_641_LVATLHPCMSDVAEDLCSMLR (UniProt Q9HAU5)” was run?
Answer: 0.128

Question: What about the “probe-labelled cysteine peptide fold change” value (50 µM) of the same target?
Answer: -0.0764

Question: For “USP19_O94966_152_VGVGPLQLEDVDAAFTDTDCVVR (UniProt O94966)”, which “probe-labelled cysteine peptide fold change” value (10 µM) is on record?
Answer: 0.106

Question: What about the “probe-labelled cysteine peptide fold change” value (50 µM) of the same target?
Answer: 0.562

Question: For “UEVLD_Q8IX04_5_MEFDCEGLR (UniProt Q8IX04)”, which “probe-labelled cysteine peptide fold change” value (10 µM) is on record?
Answer: 0.0527

Question: What about the “probe-labelled cysteine peptide fold change” value (50 µM) of the same target?
Answer: 0.12

Question: What does the source list for “UGDH_O60701_276_ASVGFGGSCFQK (UniProt O60701)”?
Answer: probe-labelled cysteine peptide fold change (10 µM): -0.0102; probe-labelled cysteine peptide fold change (50 µM): 0.16

Question: What does the source list for “UHRF1_Q96T88_497_TAEQSCDQK (UniProt Q96T88)”?
Answer: probe-labelled cysteine peptide fold change (10 µM): -0.159; probe-labelled cysteine peptide fold change (50 µM): -0.0803

Question: With “UNC45A_Q9H3U1_395_LCENYIK (UniProt Q9H3U1)” as the target, how does the “probe-labelled cysteine peptide fold change” value (10 µM) read?
Answer: 0.113

Question: What about the “probe-labelled cysteine peptide fold change” value (50 µM) of the same target?
Answer: 0.0172

Question: What does the source list for “UNK_Q9C0B0_299+308_CNDMQQSGSCPR (UniProt Q9C0B0)”?
Answer: probe-labelled cysteine peptide fold change (10 µM): 0.193; probe-labelled cysteine peptide fold change (50 µM): -0.46

Question: How did the “probe-labelled cysteine peptide fold change” value (10 µM) turn out when “UCK2_Q9BZX2_197_PAFEEFCLPTK (UniProt Q9BZX2)” was run?
Answer: -0.0609

Question: And the “probe-labelled cysteine peptide fold change” value (50 µM)?
Answer: 0.255

Question: “USP48_Q86UV5_290_LLSLPCTLNLQLMR (UniProt Q86UV5)” was tested. Which “probe-labelled cysteine peptide fold change” value (10 µM) did it give?
Answer: -0.148

Question: What about the “probe-labelled cysteine peptide fold change” value (50 µM) of the same target?
Answer: -0.403

Question: What does the source list for “UIMC1_Q96RL1_348_NECISEDMGDEDKEER (UniProt Q96RL1)”?
Answer: probe-labelled cysteine peptide fold change (10 µM): -0.425; probe-labelled cysteine peptide fold change (50 µM): -0.143

Question: Which results are given for “UGGT1_Q9NYU2_1386_DFNLDGAPYGYTPFCDSRR (UniProt Q9NYU2)”?
Answer: probe-labelled cysteine peptide fold change (10 µM): -0.155; probe-labelled cysteine peptide fold change (50 µM): -0.102

Question: Which “probe-labelled cysteine peptide fold change” value (10 µM) does the source give for “URB2_Q14146_478_LFEEVLGVICRPAAEALR (UniProt Q14146)” here?
Answer: 0.177

Question: And the “probe-labelled cysteine peptide fold change” value (50 µM)?
Answer: 0.281

Question: Which “probe-labelled cysteine peptide fold change” value (10 µM) does the source give for “USP24_Q9UPU5_1628_CSTANSR (UniProt Q9UPU5)” here?
Answer: -0.0669

Question: And the “probe-labelled cysteine peptide fold change” value (50 µM)?
Answer: 0.116

Question: With “UHRF2_Q96PU4_541_ALALNCDAPLDDK (UniProt Q96PU4)” as the target, how does the “probe-labelled cysteine peptide fold change” value (10 µM) read?
Answer: -0.274

Question: And the “probe-labelled cysteine peptide fold change” value (50 µM)?
Answer: -0.113

Question: “UGGT1_Q9NYU2_880_MDFILSHAVYCR (UniProt Q9NYU2)” was tested. Which “probe-labelled cysteine peptide fold change” value (10 µM) did it give?
Answer: 0.117

Question: What about the “probe-labelled cysteine peptide fold change” value (50 µM) of the same target?
Answer: 0.39

Question: What does the source list for “USP5_P45974_838_VCASEKPPK (UniProt P45974)”?
Answer: probe-labelled cysteine peptide fold change (10 µM): -0.108; probe-labelled cysteine peptide fold change (50 µM): -0.197

Question: “UBTD2_Q8WUN7_152_SDIETLDIPEPPPNSGYECQLR (UniProt Q8WUN7)” was tested. Which “probe-labelled cysteine peptide fold change” value (10 µM) did it give?
Answer: 0.323

Question: And the “probe-labelled cysteine peptide fold change” value (50 µM)?
Answer: 0.185

Question: For “UROS_P10746_73_AVEAAELCLEQNNKTEVWER (UniProt P10746)”, which “probe-labelled cysteine peptide fold change” value (10 µM) is on record?
Answer: 0.152

Question: And the “probe-labelled cysteine peptide fold change” value (50 µM)?
Answer: -0.796

Question: Which results are given for “USP42_Q9H9J4_867_SEEPCEQPLLVHPSGDHAR (UniProt Q9H9J4)”?
Answer: probe-labelled cysteine peptide fold change (10 µM): 0.0308; probe-labelled cysteine peptide fold change (50 µM): 0.0592

Question: “UQCRH_P07919_53_ERLELCDER (UniProt P07919)” was tested. Which “probe-labelled cysteine peptide fold change” value (10 µM) did it give?
Answer: -0.198

Question: And the “probe-labelled cysteine peptide fold change” value (50 µM)?
Answer: -0.0582

Question: What does the source list for “USP34_Q70CQ2_111_HCTTINIDSTWQDESNQAEEPLNIDRECNEGSTER (UniProt Q70CQ2)”?
Answer: probe-labelled cysteine peptide fold change (10 µM): -0.406; probe-labelled cysteine peptide fold change (50 µM): 0.222

Question: For “USF1_P22415_248_ACDYIQELR (UniProt P22415)”, which “probe-labelled cysteine peptide fold change” value (10 µM) is on record?
Answer: -0.0972

Question: What about the “probe-labelled cysteine peptide fold change” value (50 µM) of the same target?
Answer: 0.00562

Question: For “UNK_Q9C0B0_272_CENGDACQYCHTR (UniProt Q9C0B0)”, which “probe-labelled cysteine peptide fold change” value (10 µM) is on record?
Answer: 0.298

Question: What about the “probe-labelled cysteine peptide fold change” value (50 µM) of the same target?
Answer: 0.317

Question: “UPF2_Q9HAU5_315_HCGDDIAGLVPR (UniProt Q9HAU5)” was tested. Which “probe-labelled cysteine peptide fold change” value (10 µM) did it give?
Answer: -0.266

Question: And the “probe-labelled cysteine peptide fold change” value (50 µM)?
Answer: 0.113

Question: For “URB1_O60287_473_TVDHCLNK (UniProt O60287)”, which “probe-labelled cysteine peptide fold change” value (10 µM) is on record?
Answer: -0.0146

Question: What about the “probe-labelled cysteine peptide fold change” value (50 µM) of the same target?
Answer: 0.509

Question: With “USP8_P40818_988_FYCSHCR (UniProt P40818)” as the target, how does the “probe-labelled cysteine peptide fold change” value (10 µM) read?
Answer: 0.125

Question: What about the “probe-labelled cysteine peptide fold change” value (50 µM) of the same target?
Answer: 0.0448

Question: With “USP24_Q9UPU5_179_CMPEAFKK (UniProt Q9UPU5)” as the target, how does the “probe-labelled cysteine peptide fold change” value (10 µM) read?
Answer: -0.148

Question: And the “probe-labelled cysteine peptide fold change” value (50 µM)?
Answer: -0.216

Question: For “UNK_Q9C0B0_100_YDEATGLCPEGDECPFLHR (UniProt Q9C0B0)”, which “probe-labelled cysteine peptide fold change” value (10 µM) is on record?
Answer: 0.155

Question: And the “probe-labelled cysteine peptide fold change” value (50 µM)?
Answer: 0.396

Question: Which results are given for “URB1_O60287_316_ELVHNFLMDLCCSLK (UniProt O60287)”?
Answer: probe-labelled cysteine peptide fold change (10 µM): 0.0303; probe-labelled cysteine peptide fold change (50 µM): 0.0568

Question: How did the “probe-labelled cysteine peptide fold change” value (10 µM) turn out when “USP40_Q9NVE5_1054_RIEICLEPLQK (UniProt Q9NVE5)” was run?
Answer: 0.0209

Question: And the “probe-labelled cysteine peptide fold change” value (50 µM)?
Answer: -0.0411

Question: “USP16_Q9Y5T5_726_FPEILDLAPFCTLK (UniProt Q9Y5T5)” was tested. Which “probe-labelled cysteine peptide fold change” value (10 µM) did it give?
Answer: -0.0354

Question: What about the “probe-labelled cysteine peptide fold change” value (50 µM) of the same target?
Answer: -0.281

Question: With “UNC45A_Q9H3U1_34_CGDYGGALAAYTQALGLDATPQDQAVLHR (UniProt Q9H3U1)” as the target, how does the “probe-labelled cysteine peptide fold change” value (10 µM) read?
Answer: -0.15

Question: What about the “probe-labelled cysteine peptide fold change” value (50 µM) of the same target?
Answer: -0.0838

Question: Which “probe-labelled cysteine peptide fold change” value (10 µM) does the source give for “USP6_P35125_1036_AQAEPINLDSCLR (UniProt P35125)” here?
Answer: -0.0258

Question: What about the “probe-labelled cysteine peptide fold change” value (50 µM) of the same target?
Answer: -0.195
